Values from PubChem BioAssay AID1508597 (Cure First, 2020).
The deposit covers about 2,100 reagents; shown is a part drawn at random. 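Calls flag viability under 80% in either arm, not effects specific to rucaparib; the reference for percent is not stated.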 Unmarked entries are inactive. Not stated in the record: the 100% reference.

Purpose: 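Survival screen with siRNA in ovarian cancer cells derived from patients, with or without rucaparib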 (primary screen)
Cells: human ovarian carcinoma lines grown from tumours: OCI-P5x (papillary serous) and OCI-C5x (clear cell)
Reagent: siRNA pool against human genes, 1.25 pmol siRNA per well
Time to read-out: 72 h or 96 h, depending on the cell culture
Conditions: rucaparib 20 µM (about IC30) or vehicle, present until read-out
Measurement: 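Luminescent ATP-based viability assay read 72 or 96 h after transfection, depending on culture, given as normalised percent viability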
Direction: viability, normalised: higher = more viable cells remaining
Active means: 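a well counts as a hit if its normalised viability is under 80 percent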
Calls: active = viability under 80%; inactive = viability 80% or more

viability, normalised (%) | Gene | rucaparib or vehicle | cell line | technical replicate
49.2 (active) | PIF1 | Rucaparib | OCI-C5x (clear cell) | 1
55.9 (active) | PIF1 | Rucaparib | OCI-C5x (clear cell) | 2
39.7 (active) | PIF1 | Rucaparib | OCI-C5x (clear cell) | 3
68.8 (active) | PIF1 | Rucaparib | OCI-P5x (serous) | 1
52.6 (active) | PIF1 | Rucaparib | OCI-P5x (serous) | 2
82 | PIF1 | Rucaparib | OCI-P5x (serous) | 3
46.5 (active) | PIF1 | Vehicle | OCI-C5x (clear cell) | 1
46.2 (active) | PIF1 | Vehicle | OCI-C5x (clear cell) | 2
51.1 (active) | PIF1 | Vehicle | OCI-C5x (clear cell) | 3
77.5 (active) | PIF1 | Vehicle | OCI-P5x (serous) | 1
70.1 (active) | PIF1 | Vehicle | OCI-P5x (serous) | 2
78.2 (active) | PIF1 | Vehicle | OCI-P5x (serous) | 3
56.8 (active) | DBH | Rucaparib | OCI-C5x (clear cell) | 1
34.1 (active) | DBH | Rucaparib | OCI-C5x (clear cell) | 2
38.8 (active) | DBH | Rucaparib | OCI-C5x (clear cell) | 3
50.7 (active) | DBH | Rucaparib | OCI-P5x (serous) | 1
48.6 (active) | DBH | Rucaparib | OCI-P5x (serous) | 2
58.7 (active) | DBH | Rucaparib | OCI-P5x (serous) | 3
36.6 (active) | DBH | Vehicle | OCI-C5x (clear cell) | 1
43.8 (active) | DBH | Vehicle | OCI-C5x (clear cell) | 2
36.7 (active) | DBH | Vehicle | OCI-C5x (clear cell) | 3
52 (active) | DBH | Vehicle | OCI-P5x (serous) | 1
48.9 (active) | DBH | Vehicle | OCI-P5x (serous) | 2
64.1 (active) | DBH | Vehicle | OCI-P5x (serous) | 3
